The results in this text go back to PubChem BioAssay AID182 (DTP/NCI, 2004).

In this test the test system is BDF1 mice, P388/ADR leukemia ip, median survival T/C. The test is described as follows: NCI In Vivo Anticancer Drug Screen. Data for tumor model P388 Leukemia resistant to Adriamycin; NSC 123127, Developed at Scr 06 and 41 (intraperitoneal) in B6D2F1 (BDF1) mice. As to conditions: T/C endpoint: median survival time, schedule: Q04DX003 (ip), vehicle: saline, higher T/C = longer survival. Here is the method: The antitumor activity of compounds was measured in mice bearing transplantable tumors. Survival or tumor size were measured and the results are expressed as the measurement made in the treated group (T) divided by the measurement made in the vehicle treated control group (C). The tumor model used in this assay is P388 Leukemia resistant to Adriamycin; NSC 123127, Developed at Scr 06 and 41 (intraperitoneal) in B6D2F1 (BDF1) mice

The list does not hold the whole screen: it covers a few groups of compounds. Not every dose and run of a compound is shown. T/C gives the treated animals as a percentage of the vehicle group. For survival time, the PubChem record calls one and a half times the control and up active, and a quarter to a half above the control has no call in these data; cut-offs in other NCI protocols can differ. Some entries show no survivor count and are marked so; the dose need not have been tolerated. Schedule codes are those of the source, taken here to give the interval after Q, in days (D) or hours (H), and the number of doses after X.

Regarding `CN(CCCl)CCCl`, the T/C by setting is: (dose: 0.43 mg/kg/injection) 190 % of control [survivor count not shown]; (dose: 0.72 mg/kg/injection) 190 % of control [survivor count not shown].
